Laboratory results published in article PMC7199855, “GRAF2, WDR44, and MICAL1 mediate Rab8/10/11–dependent export of E-cadherin, MMP14, and CFTR ΔF508” (The Journal of Cell Biology, 2020).
These are yes or no findings as the source states them, for the method shown. Binding seen in cells or lysates may run through a third protein. Some binding calls cover weakened binding; strength is not graded here. Where a sequence is shown, tags or fusion partners need not be part of it.

What was measured:
Experiment in all cases: co-IP; transfected 293T, IP with α-myc–coated magnetic beads; 20 mM Hepes pH 7.4, 150 mM NaCl, 2 mM EDTA, 1% IGEPAL CA-630; Western blot
myc-MICAL1 (human) = target: T1, myc-MICAL1 (human) (UniProt Q8TDZ2)
T1 sequence: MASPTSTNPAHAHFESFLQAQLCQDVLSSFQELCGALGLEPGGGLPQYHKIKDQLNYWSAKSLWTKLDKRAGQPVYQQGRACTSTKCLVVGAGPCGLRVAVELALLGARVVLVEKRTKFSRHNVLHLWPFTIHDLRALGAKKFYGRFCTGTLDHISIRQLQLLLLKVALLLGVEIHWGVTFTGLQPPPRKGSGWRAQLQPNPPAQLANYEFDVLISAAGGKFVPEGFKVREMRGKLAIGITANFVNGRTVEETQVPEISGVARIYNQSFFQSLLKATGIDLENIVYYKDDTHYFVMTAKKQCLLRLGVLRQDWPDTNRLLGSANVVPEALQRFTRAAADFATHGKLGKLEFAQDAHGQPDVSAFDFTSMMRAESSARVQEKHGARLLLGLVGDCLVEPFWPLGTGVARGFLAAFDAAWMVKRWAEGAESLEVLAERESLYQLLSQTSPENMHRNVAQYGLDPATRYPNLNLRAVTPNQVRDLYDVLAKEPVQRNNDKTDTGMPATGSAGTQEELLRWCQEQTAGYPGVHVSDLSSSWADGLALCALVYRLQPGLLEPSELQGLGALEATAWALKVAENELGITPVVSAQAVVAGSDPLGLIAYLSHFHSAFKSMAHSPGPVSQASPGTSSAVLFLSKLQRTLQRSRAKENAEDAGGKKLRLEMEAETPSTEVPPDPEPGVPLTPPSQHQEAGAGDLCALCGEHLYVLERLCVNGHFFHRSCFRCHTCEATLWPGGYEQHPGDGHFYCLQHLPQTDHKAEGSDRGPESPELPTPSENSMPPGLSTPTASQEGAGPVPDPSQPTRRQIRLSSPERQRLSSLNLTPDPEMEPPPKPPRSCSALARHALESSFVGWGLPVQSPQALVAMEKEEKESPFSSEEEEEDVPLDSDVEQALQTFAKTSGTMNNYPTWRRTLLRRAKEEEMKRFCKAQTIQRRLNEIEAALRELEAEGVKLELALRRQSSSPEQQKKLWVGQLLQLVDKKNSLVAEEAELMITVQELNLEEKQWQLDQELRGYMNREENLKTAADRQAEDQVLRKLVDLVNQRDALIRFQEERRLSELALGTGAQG

myc-MICAL1 PPAPP (human) = target: T2, myc-MICAL1 PPAPP (human) (UniProt Q8TDZ2)
T2 sequence: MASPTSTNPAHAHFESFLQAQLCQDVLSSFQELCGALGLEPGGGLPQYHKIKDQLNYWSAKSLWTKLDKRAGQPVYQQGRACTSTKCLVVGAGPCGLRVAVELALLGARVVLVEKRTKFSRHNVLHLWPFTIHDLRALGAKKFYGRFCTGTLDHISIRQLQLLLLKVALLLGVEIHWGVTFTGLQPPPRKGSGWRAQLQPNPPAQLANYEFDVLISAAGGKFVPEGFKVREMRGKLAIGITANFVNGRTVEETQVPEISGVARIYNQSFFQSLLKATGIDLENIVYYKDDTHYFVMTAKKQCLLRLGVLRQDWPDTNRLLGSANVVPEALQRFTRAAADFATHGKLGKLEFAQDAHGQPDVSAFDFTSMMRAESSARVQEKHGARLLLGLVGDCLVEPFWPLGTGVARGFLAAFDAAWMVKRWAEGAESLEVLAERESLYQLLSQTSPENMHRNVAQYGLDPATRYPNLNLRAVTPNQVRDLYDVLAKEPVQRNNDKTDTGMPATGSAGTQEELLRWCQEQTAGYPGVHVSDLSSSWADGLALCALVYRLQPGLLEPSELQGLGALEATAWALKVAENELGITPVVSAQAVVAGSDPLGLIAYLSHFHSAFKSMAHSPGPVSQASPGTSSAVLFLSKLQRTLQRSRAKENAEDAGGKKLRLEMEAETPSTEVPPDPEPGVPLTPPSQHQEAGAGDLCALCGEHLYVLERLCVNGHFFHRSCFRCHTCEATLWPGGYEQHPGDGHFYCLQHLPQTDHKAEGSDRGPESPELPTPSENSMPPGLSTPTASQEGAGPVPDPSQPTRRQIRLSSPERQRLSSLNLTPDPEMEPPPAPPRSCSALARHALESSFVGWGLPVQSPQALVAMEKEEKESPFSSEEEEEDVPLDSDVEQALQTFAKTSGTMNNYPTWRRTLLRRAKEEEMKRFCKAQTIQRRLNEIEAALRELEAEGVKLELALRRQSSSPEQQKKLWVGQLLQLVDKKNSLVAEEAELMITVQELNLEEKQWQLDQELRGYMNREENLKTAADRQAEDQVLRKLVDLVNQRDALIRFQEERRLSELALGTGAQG

myc-MICAL1^Pro (human) = target: T3, myc-MICAL1^Pro (human) (UniProt Q8TDZ2)
T3 sequence: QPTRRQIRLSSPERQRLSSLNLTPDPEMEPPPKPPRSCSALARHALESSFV

- binding (myc-MICAL1 (human)): binds
- binding (myc-MICAL1 PPAPP (human)): no binding
- binding (myc-MICAL1^Pro (human)): binds
B1: GRAF1b-GFP (protein, UniProt Q9UNA1-2 1-759)
chain: MGLPALEFSDCCLDSPHFRETLKSHEAELDKTNKFIKELIKDGKSLISALKNLSSAKRKFADSLNEFKFQCIGDAETDDEMCIARSLQEFATVLRNLEDERIRMIENASEVLITPLEKFRKEQIGAAKEAKKKYDKETEKYCGILEKHLNLSSKKKESQLQEADSQVDLVRQHFYEVSLEYVFKVQEVQERKMFEFVEPLLAFLQGLFTFYHHGYELAKDFGDFKTQLTISIQNTRNRFEGTRSEVESLMKKMKENPLEHKTISPYTMEGYLYVQEKRHFGTSWVKHYCTYQRDSKQITMVPFDQKSGGKGGEDESVILKSCTRRKTDSIEKRFCFDVEAVDRPGVITMQALSEEDRRLWMEAMDGREPVYNSNKDSQSEGTAQLDSIGFSIIRKCIHAVETRGINEQGLYRIVGVNSRVQKLLSVLMDPKTASETETDICAEWEIKTITSALKTYLRMLPGPLMMYQFQRSFIKAAKLENQESRVSEIHSLVHRLPEKNRQMLQLLMNHLANVANNHKQNLMTVANLGVVFGPTLLRPQEETVAAIMDIKFQNIVIEILIENHEKIFNTVPDMPLTNAQLHLSRKKSSDSKPPSCSERPLTLFHTVQSTEKQEQRNSIINSSLESVSSNPNSILNSSSSLQPNMNSSDPDLAVVKPTRPNSLPPNPSPTSPLSPSWPMFSAPSSPMPTSSTSSDSSPVSTPFRKAKALYACKAEHDSELSFTAGTVFDNVHPSQEPGWLEGTLNGKTGLIPENYVEFL
